Test results reported in publication doi:10.1101/2021.01.11.426208.
No constants are given. Whether binding was seen depends on the method and setting. Binding can be weak; no strength is given. Where a sequence is shown, tags or fusion partners need not be part of it. For part of these data: Binding seen in cells or lysates may run through a third protein. One block for each molecule: values may come before it.

By UniProt entry, the sequences of proteins in these tests, tags left out. Where a name states a change or a piece, a line headed by the entry shows the natural chain unless it says otherwise.
UniProt F4KI84: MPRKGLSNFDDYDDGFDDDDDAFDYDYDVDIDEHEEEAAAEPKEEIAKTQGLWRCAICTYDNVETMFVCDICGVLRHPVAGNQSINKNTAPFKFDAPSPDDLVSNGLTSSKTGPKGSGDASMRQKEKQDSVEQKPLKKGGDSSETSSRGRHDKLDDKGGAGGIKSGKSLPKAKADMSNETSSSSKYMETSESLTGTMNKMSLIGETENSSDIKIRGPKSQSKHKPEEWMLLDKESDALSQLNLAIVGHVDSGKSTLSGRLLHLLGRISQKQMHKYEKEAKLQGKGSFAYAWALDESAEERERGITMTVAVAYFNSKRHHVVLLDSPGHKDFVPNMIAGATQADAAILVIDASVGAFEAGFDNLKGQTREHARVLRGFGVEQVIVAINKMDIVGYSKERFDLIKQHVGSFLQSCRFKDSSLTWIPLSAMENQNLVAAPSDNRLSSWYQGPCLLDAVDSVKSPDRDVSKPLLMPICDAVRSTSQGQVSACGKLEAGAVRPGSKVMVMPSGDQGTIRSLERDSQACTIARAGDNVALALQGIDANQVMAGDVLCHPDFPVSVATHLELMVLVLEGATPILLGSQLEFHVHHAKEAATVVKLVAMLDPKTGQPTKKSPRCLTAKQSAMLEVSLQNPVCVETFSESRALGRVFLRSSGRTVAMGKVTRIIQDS

Assays:
[1] = target: T1, PEL1 fused to the GAL4 DNA-binding domain (BD) (Arabidopsis thaliana) (UniProt Q9ZT87); assay: two-hybrid
T1 sequence: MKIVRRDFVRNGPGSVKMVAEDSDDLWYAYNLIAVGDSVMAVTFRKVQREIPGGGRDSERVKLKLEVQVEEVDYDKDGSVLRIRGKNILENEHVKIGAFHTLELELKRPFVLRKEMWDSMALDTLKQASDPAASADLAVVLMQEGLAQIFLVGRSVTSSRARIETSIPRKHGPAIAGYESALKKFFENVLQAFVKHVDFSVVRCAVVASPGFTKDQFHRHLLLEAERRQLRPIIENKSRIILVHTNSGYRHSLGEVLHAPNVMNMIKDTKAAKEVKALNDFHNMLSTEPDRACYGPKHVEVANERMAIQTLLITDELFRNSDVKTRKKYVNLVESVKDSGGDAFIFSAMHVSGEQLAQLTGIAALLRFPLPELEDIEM

[2] = target: HBS1-cYFP fusion protein (Arabidopsis thaliana); assay: split reporter
[3] = target: GST-HBS1 fusion protein (Arabidopsis thaliana) (UniProt F4KI84); assay: pull-down

binding [1]: binds
Molecule: HBS1 fused to the GAL4 activation domain (AD) (Arabidopsis thaliana)

binding [2]: binds
B1: PEL1-nYFP fusion protein (protein, UniProt Q9ZT87 1-378)
chain: T1 sequence

binding [3]: binds
B2: 6XHis-PEL1 fusion protein (protein, UniProt Q9ZT87 1-378)
chain: T1 sequence
